# Experimental data: PubChem BioAssay AID652243 (Drosophila RNAi Screening Center, 2013)
# Screen: 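Knock-downs that decrease or increase androgen receptor reporter signal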 (primary screen)
# Cells: Drosophila S2R+ cells
# Reagent: long dsRNA against Drosophila genes
# Timing: 72 h (48 h, then 24 h hormone)
# Challenge: synthetic androgen R1881 at 10 nM for 24 h
# Detection: 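Per-well raw luminescence of the androgen-driven firefly reporter and of the Renilla control, two replicates each, without normalisation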
# Scale: firefly reporter light: higher = more light from androgen-responsive reporter; Renilla control light: higher = more constitutive control signal (cell number, transfection)
# Rule for the call: 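Across duplicate plates, a knock-down whose log firefly/Renilla ratio shifted a set fold down or up from the GFP/LacZ control mean was a hit; the downward cut appears as both 1.5 and 3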
# Meaning of the calls: active = hit: reporter lowered or raised; inactive = no hit
# The deposit covers about 24,000 reagents; this is a random part of those with a known target gene and a result. Of all reagents, 246 (1%) are marked active. 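Plates not normalised; calls are printed but the firefly/Renilla ratio behind them is not deposited; fold cut for lowering reported inconsistently.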 Raw values are not corrected between plates. Reagents against one gene are numbered here. A plus sign joins genes that one reagent is predicted to hit. Not stated in the record: the amount of reagent.
gene,dsRNA no.,"firefly reporter light, replicate 1","firefly reporter light, replicate 2","Renilla control light, replicate 1","Renilla control light, replicate 2",Call
Cngl (Cyclic nucleotide-gated ion channel-like),1,51179,33281,4.59e5,5.57e5,inactive
Cngl (Cyclic nucleotide-gated ion channel-like),2,3.84e5,4.17e5,2.18e6,3.02e6,inactive
Cngl (Cyclic nucleotide-gated ion channel-like),3,6.25e5,3.09e5,6.04e5,4.92e5,inactive
Cngl (Cyclic nucleotide-gated ion channel-like),4,7.39e5,6.08e5,8.35e5,7.52e5,inactive
CG13022,1,2.44e5,2.50e5,2.20e6,1.85e6,inactive
CG17658,1,1.74e5,1.65e5,1.18e6,1.22e6,inactive
CG13081,1,1.75e5,1.42e5,1.48e6,1.39e6,inactive
sns (sticks and stones),1,4.13e5,3.16e5,2.00e6,1.65e6,inactive
sns (sticks and stones),2,2.85e5,3.57e5,2.43e6,3.63e6,inactive
sns (sticks and stones),3,3.97e5,3.75e5,2.45e6,1.94e6,inactive
sns (sticks and stones),4,3.45e5,2.51e5,2.17e6,1.50e6,inactive
pch2 (pachytene checkpoint 2),1,67767,55788,1.89e6,1.28e6,inactive
Vha100-5 (Vacuolar H[+] ATPase 100kD subunit 5),1,1.43e5,1.90e5,1.16e6,1.53e6,inactive
Vha100-5 (Vacuolar H[+] ATPase 100kD subunit 5),2,5.37e5,4.27e5,4.87e5,3.20e5,inactive
Hmu (Hemomucin),1,80213,94963,1.59e6,1.33e6,inactive
Hmu (Hemomucin),2,5.19e5,7.30e5,5.33e5,7.05e5,inactive
Atg14 (Autophagy-related 14),1,90645,1.18e5,6.98e5,4.19e5,inactive
Atg14 (Autophagy-related 14),2,2.53e5,2.95e5,4.90e5,5.73e5,inactive
Tbca (Tubulin binding cofactor A),1,51130,66758,4.93e5,3.64e5,inactive
Tbca (Tubulin binding cofactor A),2,6.07e5,4.63e5,1.33e6,1.30e6,inactive
CG32772,1,67083,1.02e5,8.48e5,5.87e5,inactive
CG32772,2,6.96e5,6.62e5,7.24e5,6.62e5,inactive
CG34301,1,9.82e5,9.57e5,1.94e6,2.01e6,inactive
Ndfip (Nedd4 family interacting protein),1,60803,43940,3.44e5,3.26e5,inactive
CG14294,1,3.57e5,2.38e5,4.90e6,3.13e6,inactive
CR10102 (pseudo),1,62108,66127,1.59e6,1.59e6,inactive
Strip (Striatin interacting protein),1,5.03e5,1.01e6,1.14e6,1.70e6,inactive
Strip (Striatin interacting protein),2,5.39e5,6.40e5,1.01e6,1.01e6,inactive
Pfdn4 (Prefoldin 4),1,2.86e5,3.32e5,3.15e6,3.02e6,inactive
Pfdn4 (Prefoldin 4),2,5.62e5,5.13e5,6.29e5,7.03e5,inactive
Chchd2 (Coiled-coil-helix-coiled-coil-helix domain containing 2),1,7.25e5,8.74e5,1.77e6,1.79e6,inactive
Chchd2 (Coiled-coil-helix-coiled-coil-helix domain containing 2),2,12234,9850,14812,14812,inactive
CG8003,1,1.03e6,8.48e5,1.54e6,1.39e6,inactive
CG1724,1,1.55e5,2.52e5,6.74e5,6.65e5,inactive
CG1724,2,8.70e5,1.06e6,5.94e5,6.93e5,inactive
CG32302,1,57070,66647,1.12e6,1.02e6,inactive
Arl2 (ADP ribosylation factor-like 2),1,74224,88604,2.34e6,1.34e6,inactive
CG11342,1,1.10e5,1.17e5,1.15e6,1.92e6,inactive
CG11342,2,2.74e5,2.60e5,4.45e5,3.88e5,inactive
CG15711,1,96546,1.30e5,1.03e6,1.03e6,inactive
GlyRS (Glycyl-tRNA synthetase),1,9.01e5,1.06e6,1.11e6,1.68e6,inactive
Fnta (Farnesyl transferase alpha subunit),1,7.61e5,1.22e6,1.56e6,1.49e6,inactive
Fnta (Farnesyl transferase alpha subunit),2,4.35e5,3.21e5,9.67e5,1.01e6,inactive
CG13623,1,2.00e5,1.85e5,1.14e6,1.33e6,inactive
LManII (Lysosomal alpha-mannosidase II),1,8.61e5,1.17e6,1.96e6,2.19e6,inactive
Coq6 (Coenzyme Q6),1,2.92e5,3.69e5,1.57e6,1.48e6,active
Coq6 (Coenzyme Q6),2,7.99e5,6.42e5,9.68e5,9.68e5,inactive
PhKgamma (Phosphorylase kinase gamma),1,1.02e5,92045,1.18e6,8.37e5,inactive
PhKgamma (Phosphorylase kinase gamma),2,2.32e5,2.63e5,6.57e5,7.13e5,inactive
PhKgamma (Phosphorylase kinase gamma),3,,,,,inactive
CG11263,1,1.34e5,1.73e5,1.40e6,1.32e6,inactive
Rbbp5 + CG6434 (retired record),1,2.95e5,2.54e5,2.88e6,2.37e6,inactive
olf413,1,1.78e5,1.70e5,3.14e5,2.82e5,inactive
olf413,2,7.24e5,6.53e5,2.35e6,1.72e6,inactive
olf413,3,1.75e5,1.67e5,1.77e6,1.84e6,inactive
olf413,4,6.11e5,1.00e6,1.22e6,1.90e6,inactive
CG9452,1,1.99e5,1.55e5,2.68e6,1.79e6,inactive
CG9452,2,8.12e5,8.97e5,1.69e6,1.52e6,inactive

Entries above whose gene name starts with T or t (2):
gene,dsRNA no.,"firefly reporter light, replicate 1","firefly reporter light, replicate 2","Renilla control light, replicate 1","Renilla control light, replicate 2",Call
Tbca (Tubulin binding cofactor A),1,51130,66758,4.93e5,3.64e5,inactive
Tbca (Tubulin binding cofactor A),2,6.07e5,4.63e5,1.33e6,1.30e6,inactive
